Source: PubChem BioAssay AID1508597 (Cure First, 2020)
The whole screen tested about 2,100 reagents; shown is a part drawn at random. 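Calls flag viability under 80% in either arm, not effects specific to rucaparib; the reference for percent is not stated.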 A reagent listed more than once was tested more than once; the source does not tell the runs apart. Not stated in the record: the 100% reference.

Assay: 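Genes whose silencing sensitises or protects ovarian cancer cells against rucaparib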 (primary screen)
Cell system: human ovarian carcinoma lines grown from tumours: OCI-P5x (papillary serous) and OCI-C5x (clear cell)
Reagent: siRNA pool against human genes, 1.25 pmol siRNA per well
Duration: 72 h or 96 h, depending on the cell culture
Conditions: rucaparib 20 µM (about IC30) or vehicle, present until read-out
Measured: 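Luminescent ATP-based viability assay read 72 or 96 h after transfection, depending on culture, given as normalised percent viability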
Reading the numbers: viability, normalised: higher = more viable cells remaining
Active means: 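a well counts as a hit if its normalised viability is under 80 percent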
Calls: active = viability under 80%; inactive = viability 80% or more

| gene | rucaparib or vehicle | cell line | technical replicate | viability, normalised (%) | call |
| --- | --- | --- | --- | --- | --- |
| ITPK1 (inositol-tetrakisphosphate 1-kinase) | Rucaparib | OCI-C5x (clear cell) | 1 | 51.3 | active |
| ITPK1 (inositol-tetrakisphosphate 1-kinase) | Rucaparib | OCI-C5x (clear cell) | 2 | 55.3 | active |
| ITPK1 (inositol-tetrakisphosphate 1-kinase) | Rucaparib | OCI-C5x (clear cell) | 3 | 55.6 | active |
| ITPK1 (inositol-tetrakisphosphate 1-kinase) | Rucaparib | OCI-P5x (serous) | 1 | 62.7 | active |
| ITPK1 (inositol-tetrakisphosphate 1-kinase) | Rucaparib | OCI-P5x (serous) | 2 | 69.6 | active |
| ITPK1 (inositol-tetrakisphosphate 1-kinase) | Rucaparib | OCI-P5x (serous) | 3 | 70.1 | active |
| ITPK1 (inositol-tetrakisphosphate 1-kinase) | Vehicle | OCI-C5x (clear cell) | 1 | 56.1 | active |
| ITPK1 (inositol-tetrakisphosphate 1-kinase) | Vehicle | OCI-C5x (clear cell) | 2 | 55.5 | active |
| ITPK1 (inositol-tetrakisphosphate 1-kinase) | Vehicle | OCI-C5x (clear cell) | 3 | 50.4 | active |
| ITPK1 (inositol-tetrakisphosphate 1-kinase) | Vehicle | OCI-P5x (serous) | 1 | 68 | active |
| ITPK1 (inositol-tetrakisphosphate 1-kinase) | Vehicle | OCI-P5x (serous) | 2 | 63.3 | active |
| ITPK1 (inositol-tetrakisphosphate 1-kinase) | Vehicle | OCI-P5x (serous) | 3 | 69 | active |
| HNRNPU (heterogeneous nuclear ribonucleoprotein U) | Rucaparib | OCI-C5x (clear cell) | 1 | 61.2 | active |
| HNRNPU (heterogeneous nuclear ribonucleoprotein U) | Rucaparib | OCI-C5x (clear cell) | 2 | 35.4 | active |
| HNRNPU (heterogeneous nuclear ribonucleoprotein U) | Rucaparib | OCI-C5x (clear cell) | 3 | 47.5 | active |
| HNRNPU (heterogeneous nuclear ribonucleoprotein U) | Rucaparib | OCI-P5x (serous) | 1 | 58.1 | active |
| HNRNPU (heterogeneous nuclear ribonucleoprotein U) | Rucaparib | OCI-P5x (serous) | 2 | 88.5 | inactive |
| HNRNPU (heterogeneous nuclear ribonucleoprotein U) | Rucaparib | OCI-P5x (serous) | 3 | 81.1 | inactive |
| HNRNPU (heterogeneous nuclear ribonucleoprotein U) | Vehicle | OCI-C5x (clear cell) | 1 | 40.9 | active |
| HNRNPU (heterogeneous nuclear ribonucleoprotein U) | Vehicle | OCI-C5x (clear cell) | 2 | 33.6 | active |
| HNRNPU (heterogeneous nuclear ribonucleoprotein U) | Vehicle | OCI-C5x (clear cell) | 3 | 41.1 | active |
| HNRNPU (heterogeneous nuclear ribonucleoprotein U) | Vehicle | OCI-P5x (serous) | 1 | 69.8 | active |
| HNRNPU (heterogeneous nuclear ribonucleoprotein U) | Vehicle | OCI-P5x (serous) | 2 | 45.9 | active |
| HNRNPU (heterogeneous nuclear ribonucleoprotein U) | Vehicle | OCI-P5x (serous) | 3 | 74.4 | active |
| KPNA3 (karyopherin subunit alpha 3) | Rucaparib | OCI-C5x (clear cell) | 1 | 70.2 | active |
| KPNA3 (karyopherin subunit alpha 3) | Rucaparib | OCI-C5x (clear cell) | 2 | 68.9 | active |
| KPNA3 (karyopherin subunit alpha 3) | Rucaparib | OCI-C5x (clear cell) | 3 | 60.4 | active |
| KPNA3 (karyopherin subunit alpha 3) | Rucaparib | OCI-P5x (serous) | 1 | 87.2 | inactive |
| KPNA3 (karyopherin subunit alpha 3) | Rucaparib | OCI-P5x (serous) | 2 | 88.4 | inactive |
| KPNA3 (karyopherin subunit alpha 3) | Rucaparib | OCI-P5x (serous) | 3 | 73 | active |
| KPNA3 (karyopherin subunit alpha 3) | Vehicle | OCI-C5x (clear cell) | 1 | 47.9 | active |
| KPNA3 (karyopherin subunit alpha 3) | Vehicle | OCI-C5x (clear cell) | 2 | 50.5 | active |
| KPNA3 (karyopherin subunit alpha 3) | Vehicle | OCI-C5x (clear cell) | 3 | 42.2 | active |
| KPNA3 (karyopherin subunit alpha 3) | Vehicle | OCI-P5x (serous) | 1 | 76 | active |
| KPNA3 (karyopherin subunit alpha 3) | Vehicle | OCI-P5x (serous) | 2 | 57.6 | active |
| KPNA3 (karyopherin subunit alpha 3) | Vehicle | OCI-P5x (serous) | 3 | 69.5 | active |
| SLC1A2 | Rucaparib | OCI-C5x (clear cell) | 1 | 32.2 | active |
| SLC1A2 | Rucaparib | OCI-C5x (clear cell) | 2 | 34.9 | active |
| SLC1A2 | Rucaparib | OCI-C5x (clear cell) | 3 | 26 | active |
| SLC1A2 | Rucaparib | OCI-P5x (serous) | 1 | 34 | active |
| SLC1A2 | Rucaparib | OCI-P5x (serous) | 2 | 52 | active |
| SLC1A2 | Rucaparib | OCI-P5x (serous) | 3 | 52.2 | active |
| SLC1A2 | Vehicle | OCI-C5x (clear cell) | 1 | 35.7 | active |
| SLC1A2 | Vehicle | OCI-C5x (clear cell) | 2 | 32.7 | active |
| SLC1A2 | Vehicle | OCI-C5x (clear cell) | 3 | 34.1 | active |
| SLC1A2 | Vehicle | OCI-P5x (serous) | 1 | 75.4 | active |
| SLC1A2 | Vehicle | OCI-P5x (serous) | 2 | 62.5 | active |
| SLC1A2 | Vehicle | OCI-P5x (serous) | 3 | 70.6 | active |
| POLD2 (DNA polymerase delta 2, accessory subunit) | Rucaparib | OCI-C5x (clear cell) | 1 | 48.2 | active |
| POLD2 (DNA polymerase delta 2, accessory subunit) | Rucaparib | OCI-C5x (clear cell) | 2 | 51.4 | active |
| POLD2 (DNA polymerase delta 2, accessory subunit) | Rucaparib | OCI-C5x (clear cell) | 3 | 52 | active |
| POLD2 (DNA polymerase delta 2, accessory subunit) | Rucaparib | OCI-P5x (serous) | 1 | 72.9 | active |
| POLD2 (DNA polymerase delta 2, accessory subunit) | Rucaparib | OCI-P5x (serous) | 2 | 78.9 | active |
| POLD2 (DNA polymerase delta 2, accessory subunit) | Rucaparib | OCI-P5x (serous) | 3 | 84.7 | inactive |
| POLD2 (DNA polymerase delta 2, accessory subunit) | Vehicle | OCI-C5x (clear cell) | 1 | 38.7 | active |
| POLD2 (DNA polymerase delta 2, accessory subunit) | Vehicle | OCI-C5x (clear cell) | 2 | 48.1 | active |
| POLD2 (DNA polymerase delta 2, accessory subunit) | Vehicle | OCI-C5x (clear cell) | 3 | 34.7 | active |
| POLD2 (DNA polymerase delta 2, accessory subunit) | Vehicle | OCI-P5x (serous) | 1 | 85.7 | inactive |
| POLD2 (DNA polymerase delta 2, accessory subunit) | Vehicle | OCI-P5x (serous) | 2 | 89.4 | inactive |
| POLD2 (DNA polymerase delta 2, accessory subunit) | Vehicle | OCI-P5x (serous) | 3 | 61.1 | active |
| YY1 (YY1 transcription factor) | Rucaparib | OCI-C5x (clear cell) | 1 | 67.7 | active |
| YY1 (YY1 transcription factor) | Rucaparib | OCI-C5x (clear cell) | 1 | 50.1 | active |
| YY1 (YY1 transcription factor) | Rucaparib | OCI-C5x (clear cell) | 2 | 58.2 | active |
| YY1 (YY1 transcription factor) | Rucaparib | OCI-C5x (clear cell) | 2 | 52.8 | active |
| YY1 (YY1 transcription factor) | Rucaparib | OCI-C5x (clear cell) | 3 | 39.9 | active |
| YY1 (YY1 transcription factor) | Rucaparib | OCI-C5x (clear cell) | 3 | 54.4 | active |
| YY1 (YY1 transcription factor) | Rucaparib | OCI-P5x (serous) | 1 | 62.3 | active |
| YY1 (YY1 transcription factor) | Rucaparib | OCI-P5x (serous) | 1 | 48.2 | active |
| YY1 (YY1 transcription factor) | Rucaparib | OCI-P5x (serous) | 2 | 60.3 | active |
| YY1 (YY1 transcription factor) | Rucaparib | OCI-P5x (serous) | 2 | 70.1 | active |
| YY1 (YY1 transcription factor) | Rucaparib | OCI-P5x (serous) | 3 | 54.7 | active |
| YY1 (YY1 transcription factor) | Rucaparib | OCI-P5x (serous) | 3 | 70.2 | active |
| YY1 (YY1 transcription factor) | Vehicle | OCI-C5x (clear cell) | 1 | 68.5 | active |
| YY1 (YY1 transcription factor) | Vehicle | OCI-C5x (clear cell) | 1 | 32.6 | active |
| YY1 (YY1 transcription factor) | Vehicle | OCI-C5x (clear cell) | 2 | 56.2 | active |
| YY1 (YY1 transcription factor) | Vehicle | OCI-C5x (clear cell) | 2 | 39.3 | active |
| YY1 (YY1 transcription factor) | Vehicle | OCI-C5x (clear cell) | 3 | 39.5 | active |
| YY1 (YY1 transcription factor) | Vehicle | OCI-C5x (clear cell) | 3 | 58.1 | active |
| YY1 (YY1 transcription factor) | Vehicle | OCI-P5x (serous) | 1 | 68.8 | active |
| YY1 (YY1 transcription factor) | Vehicle | OCI-P5x (serous) | 1 | 63.9 | active |
| YY1 (YY1 transcription factor) | Vehicle | OCI-P5x (serous) | 2 | 60.8 | active |
| YY1 (YY1 transcription factor) | Vehicle | OCI-P5x (serous) | 2 | 80.5 | inactive |
| YY1 (YY1 transcription factor) | Vehicle | OCI-P5x (serous) | 3 | 65.5 | active |
| YY1 (YY1 transcription factor) | Vehicle | OCI-P5x (serous) | 3 | 57.1 | active |

In a second layout: results already given.
gene,rucaparib or vehicle,cell line,technical replicate,"viability, normalised (%)",call
HNRNPU (heterogeneous nuclear ribonucleoprotein U),Vehicle,OCI-C5x (clear cell),3,41.1,active
HNRNPU (heterogeneous nuclear ribonucleoprotein U),Vehicle,OCI-P5x (serous),1,69.8,active
HNRNPU (heterogeneous nuclear ribonucleoprotein U),Vehicle,OCI-P5x (serous),2,45.9,active
HNRNPU (heterogeneous nuclear ribonucleoprotein U),Vehicle,OCI-P5x (serous),3,74.4,active
KPNA3 (karyopherin subunit alpha 3),Rucaparib,OCI-C5x (clear cell),1,70.2,active
